Laboratory results taken from publication doi:10.1101/2023.04.06.535843.
These are yes or no findings as the source states them, for the method shown. Binding seen in cells or lysates may run through a third protein. Some entries that bind do so weakly or less than the wild type.

Tests used:
Test in all cases: co-IP
[1] = molecular target: T1, zebrafish Lhx1a (zebrafish) (UniProt Q90476)
T1 sequence: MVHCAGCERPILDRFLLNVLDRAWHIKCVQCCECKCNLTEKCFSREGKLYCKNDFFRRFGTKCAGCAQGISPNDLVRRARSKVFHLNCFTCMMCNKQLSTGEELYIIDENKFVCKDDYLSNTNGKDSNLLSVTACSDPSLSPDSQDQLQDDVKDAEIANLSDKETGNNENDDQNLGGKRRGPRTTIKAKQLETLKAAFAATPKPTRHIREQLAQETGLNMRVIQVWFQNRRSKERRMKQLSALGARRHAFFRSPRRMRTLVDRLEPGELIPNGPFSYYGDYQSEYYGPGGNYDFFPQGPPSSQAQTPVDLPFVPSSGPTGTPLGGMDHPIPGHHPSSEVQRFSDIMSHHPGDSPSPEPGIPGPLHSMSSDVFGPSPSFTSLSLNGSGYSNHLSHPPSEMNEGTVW

[2] = molecular target: T2, zebrafish Lhx1b (zebrafish) (UniProt O13106)
T2 sequence: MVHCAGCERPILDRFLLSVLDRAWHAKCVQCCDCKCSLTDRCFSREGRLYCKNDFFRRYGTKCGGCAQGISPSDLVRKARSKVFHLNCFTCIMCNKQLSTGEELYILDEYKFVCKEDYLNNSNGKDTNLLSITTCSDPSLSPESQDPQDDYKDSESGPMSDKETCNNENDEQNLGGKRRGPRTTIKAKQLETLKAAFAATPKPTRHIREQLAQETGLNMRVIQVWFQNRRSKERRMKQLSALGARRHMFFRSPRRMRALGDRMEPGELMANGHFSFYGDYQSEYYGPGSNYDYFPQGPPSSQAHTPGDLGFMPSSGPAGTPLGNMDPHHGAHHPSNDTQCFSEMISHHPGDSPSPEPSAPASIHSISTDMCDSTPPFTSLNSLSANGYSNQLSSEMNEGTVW

[3] = molecular target: T3, zebrafish Lhx5 (zebrafish) (UniProt P52889)
T3 sequence: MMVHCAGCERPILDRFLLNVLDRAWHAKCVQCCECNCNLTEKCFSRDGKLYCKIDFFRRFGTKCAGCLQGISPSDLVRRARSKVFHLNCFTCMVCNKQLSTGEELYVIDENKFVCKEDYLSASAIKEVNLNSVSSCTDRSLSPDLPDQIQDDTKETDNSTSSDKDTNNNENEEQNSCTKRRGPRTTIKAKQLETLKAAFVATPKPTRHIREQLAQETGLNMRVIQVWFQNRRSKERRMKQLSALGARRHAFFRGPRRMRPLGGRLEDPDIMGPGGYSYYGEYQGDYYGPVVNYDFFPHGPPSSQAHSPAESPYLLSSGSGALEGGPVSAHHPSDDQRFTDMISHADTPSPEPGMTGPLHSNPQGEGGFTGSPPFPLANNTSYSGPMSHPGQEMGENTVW

Measured: binding

B1: zebrafish Skor1b (protein, UniProt Q1LXZ9 1-751)
chain: MESIPNQLPAGRDSSCSPNSKDLQSYSGPPLKPNQVSETSLYGIPIVSLVIDGQERLCLAQISNTLLKNYSYNEIHNRRVALGITCVQCTPVQLEILRRAGAMPISSRRCGMITKREAERLCKSFLGAHSPPKLPENFAFDVSHECAWGSRGNFIPARYNSSRAKCIKCSFCNMYFSPNKFIFHSHRTPESKYTQPDAANFNSWRRHLKLSDKNSSDDVIHAWEDVKAMFNGGSRKRTLPIGRSESSPSQPPRGQTQGEPSDVPHKTLRCEDDRVNVTMPSSIRSYPVIPVPSKSFGMLQKIPPPLFPHPYGFPAFGLCQKKDDGEVMGEPNKTNLSGVFWPSPKDSAYTSFPMFWPTTGSLAMPTYHHAQPKPPSDVLCARHNELDVSEQSDRSTSTPKDSLLDNERCSSTQSTRNEEDKSGDESRSIEGIPPTSRKISYISAFRPVVKDVESIAKLYGNRGPYSGPRSGYMSPDFLSESSSYRSVSPDVDSVDDPDVDVESHKAHEDEECLQLSVDDRRSPHSLTLAQSEGVKGQDQENTQMHTLNDLHSTNSSETRPSDMESHGNKHTTRFEVYARERDEHVHQMSTSYFGSATTYQRETSVKDVHEEEPSSTVEEMEPKNHQDENNISEERLKEPNDVCADEEAICKDTGNRGSLIEKNIESMAKEELQKQLVEQVELRKKLEREFQNLKDSFQDQMKRELSYREEMVQQLQIVREAHDALHHFSCKMLTPRHCTGTCTFKPPLLPP
binds: all assays above
